From PMC12134178
No constants are given. Whether binding was seen depends on the method and setting. Binding seen in cells or lysates may run through a third protein. Some entries that bind do so weakly or less than the wild type. For some of these results: Where a sequence is shown, tags or fusion partners need not be part of it.

Amino acid sequences for entries named in this document (tags omitted).
UniProt Q07817: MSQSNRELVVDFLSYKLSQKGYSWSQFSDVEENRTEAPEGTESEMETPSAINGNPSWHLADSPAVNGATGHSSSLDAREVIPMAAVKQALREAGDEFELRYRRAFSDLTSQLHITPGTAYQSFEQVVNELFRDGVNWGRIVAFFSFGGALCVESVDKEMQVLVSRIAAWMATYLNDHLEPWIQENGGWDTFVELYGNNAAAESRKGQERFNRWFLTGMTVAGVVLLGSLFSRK
UniProt P97287: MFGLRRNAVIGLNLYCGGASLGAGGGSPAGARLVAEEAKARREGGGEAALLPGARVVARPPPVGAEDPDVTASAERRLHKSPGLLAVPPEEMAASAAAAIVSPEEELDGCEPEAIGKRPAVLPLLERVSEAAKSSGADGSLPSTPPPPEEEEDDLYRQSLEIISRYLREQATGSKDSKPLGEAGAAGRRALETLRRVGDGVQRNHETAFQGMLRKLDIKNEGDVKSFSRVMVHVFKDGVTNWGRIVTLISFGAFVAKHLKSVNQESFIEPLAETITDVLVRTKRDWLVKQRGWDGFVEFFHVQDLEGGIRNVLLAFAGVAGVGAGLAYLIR
UniProt P10415: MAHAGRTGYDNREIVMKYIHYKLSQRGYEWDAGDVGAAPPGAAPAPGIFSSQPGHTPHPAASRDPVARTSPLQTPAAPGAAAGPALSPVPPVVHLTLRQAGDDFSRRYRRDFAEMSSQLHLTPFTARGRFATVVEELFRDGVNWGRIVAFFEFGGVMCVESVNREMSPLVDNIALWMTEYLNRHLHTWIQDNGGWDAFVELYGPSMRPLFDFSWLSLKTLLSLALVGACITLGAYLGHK

Assays:
Experiment in all cases: proximity ligation; Duolink-PLA in fixed Casp9−/− MEFs 24 h after transfection with the tagged Bcl-2 family protein and GFP-MAO; anti-nesprin-2G antibody with anti-Flag or anti-HA antibody; dots per cell area relative to the empty-vector control
[1] = molecular target: Flag-Bcl-xL (UniProt Q07817)
[2] = molecular target: Flag-Mcl-1 (UniProt P97287)
[3] = molecular target: Flag-hBcl-2 (human) (UniProt P10415)
[4] = molecular target: T1, HA-Bak (UniProt Q16611)
T1 sequence: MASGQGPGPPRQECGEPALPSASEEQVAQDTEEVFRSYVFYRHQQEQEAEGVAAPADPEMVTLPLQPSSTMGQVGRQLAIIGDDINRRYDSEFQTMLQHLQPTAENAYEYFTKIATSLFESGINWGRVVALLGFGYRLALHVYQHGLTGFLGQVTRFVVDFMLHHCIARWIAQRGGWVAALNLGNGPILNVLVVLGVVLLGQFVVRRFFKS

binding [1]: binds
binding [2]: no binding
binding [3]: binds
binding [4]: binds
Substance: nesprin-2 giant (Nes2G), endogenous (from UniProt Q6ZWQ0-1 1-6874)
